# Reference: the supplement of paper PMC8256030
# “And” between values parts separate entries of the source, which are not always exact repeats. Identical values can stand only once. This is one part of the list. Repeats in this data set agree poorly, so a single value says little.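 HEK293T cells were given each compound shortly before transfection with a reporter in which red mCherry is followed by the SARS-CoV-2 frameshift element and then GFP in the −1 frame, so GFP appears only after frameshifting.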
# Test system: SARS-CoV-2 -1 PRF reporter mCherry-FSE-GFP(-1)
# Test: mCherry (red) intensity as percent of control; higher = higher upstream reporter expression
# Settings: 10 µM; 24 h; HEK293T
row,SMILES,mCherry
1,O=c1[nH]c2ccccc2n1CCN1CCN(c2cccc(C(F)(F)F)c2)CC1 [flibanserin],117%
2,Nc1cc(Cl)c(N=C2NCCN2)c(Cl)c1 [apraclonidine],117%
3,CC(=O)OCC(=O)[C@@]12N=C(C)O[C@@H]1C[C@H]1[C@@H]3CCC4=CC(=O)C=C[C@]4(C)[C@H]3[C@@H](O)C[C@@]12C [deflazacort],107%
4,Cc1cnc(NC(=O)C2=C(O)c3ccccc3S(=O)(=O)N2C)s1,96.3%
5,CCN(CC)CCNC(=O)c1cc(Br)c(N)cc1OC [Bromopride],80.2%
6,CCCc1nc(C(C)(C)O)c(C(=O)O)n1Cc1ccc(-c2ccccc2-c2nnn[nH]2)cc1 [olmesartan],140% and 128%
7,CC(Oc1ccccc1)C(=O)N[C@@H]1C(=O)N2[C@@H]1SC(C)(C)[C@@H]2C(=O)O (stereo not given in full),123%
8,C[C@]12CCC(=O)C=C1CC[C@@H]1[C@@H]2[C@@H](O)C[C@]2(C=O)[C@@H](C(=O)CO)CC[C@@H]12 [aldosterone],84.6%
9,CCN(CC)CCNC(=O)c1ccccc1O [saletamide],126%
10,OCCOCCN1CCN(C(c2ccccc2)c2ccc(Cl)cc2)CC1 (stereo not given) [hydroxyzine],109% and 108%
11,CC1(C)S[C@@H]2[C@H](NC(=O)C(C(=O)Oc3ccc4c(c3)CCC4)c3ccccc3)C(=O)N2[C@H]1C(=O)O (stereo not given in full) [carindacillin],82.4%
12,C[C@@H](O)[C@@H]1NC(=O)[C@H](CCCCN)NC(=O)[C@@H](Cc2c[nH]c3ccccc23)NC(=O)[C@H](Cc2ccccc2)NC(=O)[C@@H](NC(=O)[C@H](N)Cc2ccccc2)CSSC[C@@H](C(=O)N[C@H](CO)[C@@H](C)O)NC1=O [Sandostatin],117%
13,CC(=O)OCC(=O)[C@@]1(O)[C@@H](C)C[C@H]2[C@@H]3CCC4=CC(=O)C=C[C@]4(C)[C@@]3(F)[C@@H](O)C[C@@]21C,105%
14,C#CC1(O)CC[C@H]2[C@@H]3CCC4=CC(=O)CC[C@@H]4[C@H]3CC[C@@]21CC (stereo not given in full) [norgestrel],113%
15,CN(C)[C@@H]1C(=O)C(C(N)=O)=C(O)[C@@]2(O)C(=O)C3=C(O)c4c(O)ccc([N+](=O)[O-])c4C[C@H]3C[C@@H]12 [nitrocycline],68.6%
16,CCCCCCCCNC(C)C(O)c1ccc(SC(C)C)cc1 (stereo not given),87.7%
17,CO[C@@H]1[C@@H](O[C@@H]2O[C@H](C)[C@@H](O[C@H]3C[C@@](C)(O)[C@@H](OC(=O)CC(C)C)[C@H](C)O3)[C@H](N(C)C)[C@H]2O)[C@@H](CC=O)C[C@@H](C)[C@@H](O)/C=C/C=C/C[C@@H](C)OC(=O)C[C@H]1OC(C)=O [Josacine],102%
18,OC[C@H]1O[C@H](O[C@]2(CCl)O[C@H](CCl)[C@@H](O)[C@@H]2O)[C@H](O)[C@@H](O)[C@H]1Cl,114%
19,CCN(CC)C(=O)c1ccc(O)c(OC)c1 [etamivan],138%
20,CC(=O)c1ccc2c(c1)N(CCCN(C)C)c1ccccc1S2,101%

row,SMILES,mCherry
1,Cn1cc([S+](C)[O-])c(=O)c2ccc(F)cc21 (stereo not given) [flosequinan],107%
2,CCC[C@@H]1C[C@@H](C(=O)N[C@@H]([C@H]2O[C@H](SC)[C@H](O)[C@@H](O)[C@H]2O)[C@@H](C)O)N(C)C1 [Lincomycin],101%
3,COC(=O)Nc1nc2cc(C(=O)c3cccs3)ccc2[nH]1 [nocodazole],26.4%
4,CCOCCn1cc(C(=O)Nc2ccc(-n3nc(-c4cccnc4)cc3C(F)(F)F)cn2)ccc1=O,28.8%
5,COc1ccc(CNc2nc(N3CCC[C@H]3CO)ncc2C(=O)NCc2ncccn2)cc1Cl [avanafil],63.2%
6,CCN(CC)CC(=O)Nc1c(C)cccc1C(=O)OC [tolycaine],92.8%
7,O=C(NN1CCCCCC1)NS(=O)(=O)c1ccc(Cl)cc1 [glypinamide],97.8%
8,Nc1ncnc(Nc2ccc(Cl)cc2)n1,101%
9,CC(=O)Oc1cc(C(F)(F)F)ccc1C(=O)O [triflusal],62.2%
10,C[C@@H](O)[C@H]1C(=O)N2C(C(=O)O)=C(S[C@@H]3CN[C@H](CNS(N)(=O)=O)C3)[C@H](C)[C@H]12 [doripenem],97.1%
11,O=C1CC[C@@H](C(=O)Oc2ccc(O)cc2)N1 [pidobenzone],77.2%
12,O=C(OC1C[C@@H]2CC3C[C@H](C1)N2CC3=O)c1c[nH]c2ccccc12 (stereo not given in full) [Dolasteron],89.8%
13,NCC(O)CC(=O)O (stereo not given),105%
14,Cc1cc(-n2nc3ccc(Cl)cc3n2)c(O)c(C(C)(C)C)c1 [bumetrizole],88.9%
15,CS(=O)(=O)c1ccc([C@H](O)[C@@H](COC(=O)CN)NC(=O)C(Cl)Cl)cc1 [Thiamphenicol glycinate],50.9%
16,O=C(N[C@H](CO)[C@H](O)c1ccc([N+](=O)[O-])cc1)C(Cl)Cl [chloramphenicol],87.6% and 98.1%
17,C[N+](C)(C)[C@@H](Cc1c[nH]c(=S)[nH]1)C(=O)[O-] [Ergothioneine],99.4%
18,S=C1SCN(Cc2ccccc2)CN1Cc1ccccc1,75.2%
19,CCCCOc1cc(C(=O)NCCN(CC)CC)c2ccccc2n1 [cinchocaine],98%
20,COc1cc(N)c(Cl)cc1C(=O)NC1CCN(CCCOc2ccc(F)cc2)CC1OC (stereo not given) [cisapride],56.3%
